# Laboratory results taken from the supplement of paper PMC8728848.
# The list shows a part of the results.
# Experiments:
# Assay in all cases: glycan array binding signal (z-score within array); higher = stronger binding
# Conditions in all cases: glycan notation: IUPAC condensed, linker removed
# [1] = biological target: Neu5Ac(a2-3)Gal(b1-4)GlcNAc(b1-2)[Neu5Ac(a2-3)Gal(b1-4)GlcNAc(b1-4)]Man(a1-3)[GlcNAc(b1-4)][Neu5Ac(a2-3)Gal(b1-4)GlcNAc(b1-2)[Neu5Ac(a2-3)Gal(b1-4)GlcNAc(b1-6)]Man(a1-6)]Man(b1-4)GlcNAc(b1-4)GlcNAc
# Summary of the method: (§1)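 From the Consortium for Functional Glycomics database, 3228 arrays were curated, keeping only those whose protein sequence was available. Binding is given as a within-array Z-score averaged across arrays sharing a protein sequence and across linkers. Negative Z-scores can be read as non-binding.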
# [2] = biological target: Neu5Ac(a2-3)Gal(b1-4)GlcNAc(b1-2)[Neu5Ac(a2-3)Gal(b1-4)GlcNAc(b1-4)]Man(a1-3)[GlcNAc(b1-4)][Neu5Ac(a2-3)Gal(b1-4)GlcNAc(b1-4)Man(a1-6)]Man(b1-4)GlcNAc(b1-4)GlcNAc
# Summary of the method: as §1
# [3] = biological target: Neu5Ac(a2-3)Gal(b1-4)GlcNAc(b1-2)[Neu5Ac(a2-3)Gal(b1-4)GlcNAc(b1-6)]Man(a1-6)[Neu5Ac(a2-3)Gal(b1-4)GlcNAc(b1-2)Man(a1-3)][GlcNAc(b1-4)]Man(b1-4)GlcNAc(b1-4)GlcNAc
# Summary of the method: as §1
# [4] = biological target: Neu5Ac(a2-3)Gal(b1-4)GlcNAc(b1-3)Gal
# Summary of the method: as §1
# [5] = biological target: Neu5Ac(a2-3)Gal(b1-4)GlcNAc(b1-3)Gal(b1-3)GlcNAc
# Summary of the method: as §1
# [6] = biological target: Neu5Ac(a2-3)Gal(b1-4)GlcNAc(b1-3)Gal(b1-4)GlcNAc
# Summary of the method: as §1
# [7] = biological target: Neu5Ac(a2-3)Gal(b1-4)GlcNAc(b1-3)Gal(b1-4)GlcNAc(b1-2)Man(a1-3)[Neu5Ac(a2-3)Gal(b1-4)GlcNAc(b1-3)Gal(b1-4)GlcNAc(b1-2)Man(a1-6)]Man(b1-4)GlcNAc(b1-4)GlcNAc
# Summary of the method: as §1
# [8] = biological target: Neu5Ac(a2-3)Gal(b1-4)GlcNAc(b1-3)Gal(b1-4)GlcNAc(b1-3)Gal(b1-4)GlcNAc
# Summary of the method: as §1
# [9] = biological target: Neu5Ac(a2-3)Gal(b1-4)GlcNAc(b1-3)Gal(b1-4)GlcNAc(b1-3)Gal(b1-4)GlcNAc(b1-2)Man(a1-3)[Neu5Ac(a2-3)Gal(b1-4)GlcNAc(b1-3)Gal(b1-4)GlcNAc(b1-3)Gal(b1-4)GlcNAc(b1-2)Man(a1-6)]GalNAc
# Summary of the method: as §1
# [10] = biological target: Neu5Ac(a2-3)Gal(b1-4)GlcNAc(b1-3)Gal(b1-4)GlcNAc(b1-3)GalNAc
# Summary of the method: as §1
# [11] = biological target: Neu5Ac(a2-3)Gal(b1-4)GlcNAc(b1-3)Gal(b1-4)GlcNAc(b1-3)[Neu5Ac(a2-3)Gal(b1-4)GlcNAc(b1-3)Gal(b1-4)GlcNAc(b1-6)]GalNAc
# Summary of the method: as §1
# [12] = biological target: Neu5Ac(a2-3)Gal(b1-4)GlcNAc(b1-3)Gal(b1-4)GlcNAc(b1-6)[Gal(b1-3)]GalNAc
# Summary of the method: as §1
# [13] = biological target: Neu5Ac(a2-3)Gal(b1-4)GlcNAc(b1-3)Gal(b1-4)[Fuc(a1-3)]GlcNAc
# Summary of the method: as §1
# [14] = biological target: Neu5Ac(a2-3)Gal(b1-4)GlcNAc(b1-3)GalNAc
# Summary of the method: as §1
# [15] = biological target: Neu5Ac(a2-3)Gal(b1-4)GlcNAc(b1-3)[Neu5Ac(a2-3)Gal(b1-4)GlcNAc(b1-6)]GalNAc
# Summary of the method: as §1
# [16] = biological target: Neu5Ac(a2-3)Gal(b1-4)GlcNAc(b1-6)GalNAc
# Summary of the method: as §1
# [17] = biological target: Neu5Ac(a2-3)Gal(b1-4)GlcNAc(b1-6)[Gal(b1-3)]GalNAc
# Summary of the method: as §1
# [18] = biological target: Neu5Ac(a2-3)Gal(b1-4)GlcNAc(b1-6)[Neu5Ac(a2-3)Gal(b1-3)]GalNAc
# Summary of the method: as §1
# [19] = biological target: Neu5Ac(a2-3)Gal(b1-4)GlcNAc6S
# Summary of the method: as §1
# [20] = biological target: Neu5Ac(a2-3)Gal(b1-4)[Fuc(a1-3)]GlcNAc
# Summary of the method: as §1
# [21] = biological target: Neu5Ac(a2-3)Gal(b1-4)[Fuc(a1-3)]GlcNAc(b1-2)Man
# Summary of the method: as §1
# [22] = biological target: Neu5Ac(a2-3)Gal(b1-4)[Fuc(a1-3)]GlcNAc(b1-3)Gal
# Summary of the method: as §1
binder,measurement,setting,value
PhypaEULS3 (Physcomitrella patens) (protein) MLPVRLHCKADPNFNLAAVPGQGPVMVPFSPNDDFQVWYKDVTMSTRVKDETGSSAFSLINKATGQALRHAPEDLAQCLLADYDSNALDQTVLWTMSEDMGQGYCCIRLASQITRNLDVFRGDKKSGGVKEGSPVITFAWKKQDNQIWKMITAILEQKLISEEDLNSAVDHHHHHH,glycan array binding signal (z-score),[1],0.573
same,glycan array binding signal (z-score),[2],0.468
same,glycan array binding signal (z-score),[3],0.048
same,glycan array binding signal (z-score),[4],-0.235
same,glycan array binding signal (z-score),[5],0.682
same,glycan array binding signal (z-score),[6],-1.22
same,glycan array binding signal (z-score),[7],0.872
same,glycan array binding signal (z-score),[8],0.343
same,glycan array binding signal (z-score),[9],-1.07
same,glycan array binding signal (z-score),[10],1.11
same,glycan array binding signal (z-score),[11],-0.939
same,glycan array binding signal (z-score),[12],0.376
same,glycan array binding signal (z-score),[13],-1.15
same,glycan array binding signal (z-score),[14],0.783
same,glycan array binding signal (z-score),[15],-1.24
same,glycan array binding signal (z-score),[16],2.29
same,glycan array binding signal (z-score),[17],-0.182
same,glycan array binding signal (z-score),[18],-1.46
same,glycan array binding signal (z-score),[19],0.173
same,glycan array binding signal (z-score),[20],-0.111
same,glycan array binding signal (z-score),[21],-0.007
same,glycan array binding signal (z-score),[22],0.859

# Reprinted at random: two records from the list, in no set order.
binder,measurement,setting,value
PhypaEULS3 (Physcomitrella patens) (protein) MLPVRLHCKADPNFNLAAVPGQGPVMVPFSPNDDFQVWYKDVTMSTRVKDETGSSAFSLINKATGQALRHAPEDLAQCLLADYDSNALDQTVLWTMSEDMGQGYCCIRLASQITRNLDVFRGDKKSGGVKEGSPVITFAWKKQDNQIWKMITAILEQKLISEEDLNSAVDHHHHHH,glycan array binding signal (z-score),[17],-0.182
same,glycan array binding signal (z-score),[4],-0.235
